Reference: US6683080B2, “Treatment of diabetes mellitus” (Pfizer Inc., priority 2001, dated 2004)
Counter-ions that a name gives are not always drawn. For at least one compound, name, drawing or mass did not settle the structure.

Test system: ob/ob mice
Test: Effects on plasma glucose and serum triglyceride levels in ob/ob mice
Assay type: in vivo
Settings: per the biological test methods described

CCCc1nn(C)c2c(=O)[nH]c(-c3cc(S(=O)(=O)N4CCN(C)CC4)ccc3OCC)nc12 [Sildenafil citrate] was tested, and the plasma glucose levels was “reduce” and the serum triglyceride levels was “reduce”.
